For the test, the system named is P388 leukemia ip, CD2F1 mice, survival T/C. The test can be described thus: NCI In Vivo Anticancer Drug Screen. Data for tumor model P388 Leukemia (intraperitoneal) in CD2F1 (CDF1) mice. Conditions: T/C endpoint: median survival time, higher T/C = longer survival.
Where [1] appears, read: dose: 200.0 mg/kg/injection, schedule: Q04DX003 (ip), vehicle: saline with Tween-80.
Setting [2] is: dose: 50.0 mg/kg/injection, schedule: Q01DX009 (ip), vehicle: saline with Tween-80.
[3] abbreviates: dose: 100.0 mg/kg/injection, schedule: Q01DX009 (ip), vehicle: saline with Tween-80.
Setting [4] is: dose: 200.0 mg/kg/injection, schedule: Q01DX009 (ip), vehicle: saline with Tween-80.
The mark [5] stands for this setting: dose: 400.0 mg/kg/injection, schedule: Q01DX009 (ip), vehicle: saline with Tween-80.
Where [6] appears, read: dose: 100.0 mg/kg/injection, schedule: Q01DX009 (ip), vehicle: Klucel (hydroxypropylcellulose) (HPC).
[7] abbreviates: dose: 200.0 mg/kg/injection, schedule: Q01DX009 (ip), vehicle: Klucel (hydroxypropylcellulose) (HPC).
The mark [8] stands for this setting: dose: 400.0 mg/kg/injection, schedule: Q04DX003 (ip), vehicle: Klucel (hydroxypropylcellulose) (HPC).
Where [9] appears, read: dose: 50.0 mg/kg/injection, schedule: Q01DX009 (ip), vehicle: Klucel (hydroxypropylcellulose) (HPC).

The source of these data is PubChem BioAssay AID330 (DTP/NCI, 2004).

The list shows only some results of the screen, not a fair sample: it is rich in T/C values a quarter to a half above the control, in often repeated tests (any T/C) and in doses without a T/C. Other doses and runs of a compound stand elsewhere. T/C gives the treated animals as a percentage of the vehicle group. Some doses have a count of surviving animals in place of a T/C: the source holds a T/C of zero for them, seemingly a mark for toxic or unscored doses. Some survivor counts are full or nearly so, which does not show that the dose was tolerated: survival well below the control is almost never listed, so the zero probably covers shortened survival too. Survivors were counted at the toxicity check, usually on the fifth day, unless a day is given; later deaths do not show. Schedules are NCI's codes, read here as Q, the interval in days (D) or hours (H), X, the number of doses. Additions like (4×) stand for listed records that agree. Some entries hold several experiments; the results are listed from low to high. For survival time, the PubChem record calls one and a half times the control and up active, and a quarter to a half above the control has no call in these data; cut-offs in other NCI protocols can differ. Some T/C values are followed by the survivors on the day toxicity was checked, most often the fifth; where none is given, no animal had died by that day.

Take `O=C1N[C@H]2[C@H](O)[C@H](O)[C@@H](O)[C@H](O)[C@@H]2c2cc3c(c(O)c21)OCO3`: the survivor count is reported as 0 of 6 (dose: 0.18 mg/kg/injection, schedule: Q01DX009 (ip), vehicle: other); 0 of 6 (dose: 0.37 mg/kg/injection, schedule: Q01DX009 (ip), vehicle: other); 0 of 6 (dose: 0.75 mg/kg/injection, schedule: Q01DX009 (ip), vehicle: other); 0 of 6 (dose: 1.5 mg/kg/injection, schedule: Q01DX009 (ip), vehicle: other); 0 of 6 (dose: 3.0 mg/kg/injection, schedule: Q01DX009 (ip), vehicle: other); 0 of 6 (dose: 6.0 mg/kg/injection, schedule: Q01DX009 (ip), vehicle: other). Besides, the survivor count (dose: 12.5 mg/kg/injection, schedule: Q01DX005 (ip), vehicle: saline + alcohol) is reported as 0 of 5; the survivor count (dose: 12.5 mg/kg/injection, schedule: Q01DX009 (ip), vehicle: saline + alcohol) was 7 of 10 and 5 of 6; the survivor count (dose: 25.0 mg/kg/injection, schedule: Q01DX005 (ip), vehicle: saline + alcohol) was 0 of 5; the survivor count (dose: 25.0 mg/kg/injection, schedule: Q01DX009 (ip), vehicle: saline + alcohol) is 0 of 4 and 0 of 6; the survivor count (dose: 50.0 mg/kg/injection, schedule: Q01DX005 (ip), vehicle: saline + alcohol) is 0 of 5; the survivor count (dose: 50.0 mg/kg/injection, schedule: Q01DX009 (ip), vehicle: saline + alcohol) is reported as 0 of 4. In addition, the survivor count (dose: 100.0 mg/kg/injection, schedule: Q01DX009 (ip), vehicle: saline + alcohol) was 0 of 4. In addition, the T/C is 139 % of control (dose: 0.75 mg/kg/injection, schedule: Q01DX009 (ip), vehicle: saline + Tween-80 + alcohol); 138 % of control (dose: 0.75 mg/kg/injection, schedule: Q01DX009 (ip), vehicle: saline + alcohol); 133 % of control (dose: 0.78 mg/kg/injection, schedule: Q01DX009 (ip), vehicle: saline + alcohol); 132 % of control (dose: 1.5 mg/kg/injection, schedule: Q01DX005 (ip), vehicle: other); 127 % of control (dose: 1.5 mg/kg/injection, schedule: Q01DX005 (ip), vehicle: saline + alcohol); 135 % of control (dose: 1.5 mg/kg/injection, schedule: Q01DX009 (ip), vehicle: saline + Tween-80 + alcohol). Besides, the T/C reads like this: (dose: 1.5 mg/kg/injection, schedule: Q01DX009 (ip), vehicle: saline + alcohol) 142 % of control; (dose: 1.56 mg/kg/injection, schedule: Q01DX009 (ip), vehicle: saline + alcohol) 139 and 144 % of control; (dose: 3.0 mg/kg/injection, schedule: Q01DX005 (ip), vehicle: other) 135 % of control; (dose: 3.0 mg/kg/injection, schedule: Q01DX005 (ip), vehicle: saline + alcohol) 134 % of control; (dose: 3.13 mg/kg/injection, schedule: Q01DX009 (ip), vehicle: saline + alcohol) 146 % of control; (dose: 6.0 mg/kg/injection, schedule: Q01DX005 (ip), vehicle: saline + alcohol) 145 % of control.

Turning to `O=C(O)CNc1ccccc1.[Cu+2]`, the survivor count is listed as 2 of 6 (dose: 50.0 mg/kg/injection, schedule: Q01DX001 (ip), vehicle: Klucel (hydroxypropylcellulose) (HPC)); 0 of 6 (dose: 100.0 mg/kg/injection, schedule: Q01DX001 (ip), vehicle: Klucel (hydroxypropylcellulose) (HPC)); 0 of 6 (dose: 200.0 mg/kg/injection, schedule: Q01DX001 (ip), vehicle: Klucel (hydroxypropylcellulose) (HPC)); 0 of 6 (dose: 400.0 mg/kg/injection, schedule: Q01DX001 (ip), vehicle: Klucel (hydroxypropylcellulose) (HPC)).

`O=[N+]([O-])c1ccc(N/N=C\c2c(Cl)n(-c3ccccc3)c3ccccc23)c([N+](=O)[O-])c1`: the survivor count under setting [1] is recorded as 6 of 6.

For `COC(=O)Nc1ccc(Cc2ccc(NC(=O)OC)cc2)cc1`, the T/C was 98, 110 (2×), 111, 118 % of control under setting [2]; 100, 104, 107, 133, 171 % of control under setting [3]; 144, 200, 212 % of control under setting [4]; 87 % of control under setting [5]. Moreover, the survivor count is 3 of 6 and 6 of 6 under setting [4]; 6 of 6 (2×) under setting [5].

With `CCCCCCCCCCCCCCCC[N+](C)(C)CCN=[N+]=[N-]`, the survivor count under setting [2] was 1 of 6.

As for `C1CCC([Se][Se]C2CCCC2)C1`, the survivor count was 5 of 6 under setting [6] and 0 of 6 under setting [7].

For the compound `CCC(C)C1C(=O)O[B-](F)(F)/[N+]1=C\c1ccccc1` (stereo not given), under setting [8], the survivor count was 0 of 6.

On to `CN(C/C=C/CN(C)C(=S)Nc1ccccc1)C(=S)Nc1ccccc1`, for which the survivor count (dose: 12.5 mg/kg/injection, schedule: Q01DX009 (ip), vehicle: suspension in saline) was 6 of 6; the survivor count (dose: 100.0 mg/kg/injection, schedule: Q01DX009 (ip), vehicle: suspension in saline) is given as 5 of 6; the survivor count (dose: 200.0 mg/kg/injection, schedule: Q01DX009 (ip), vehicle: suspension in saline) was 5 of 6.

Regarding `C[n+]1c(-c2cccc(OCCCCCCCOc3cccc(-c4c5cc(N)ccc5c5ccc(N)cc5[n+]4C)c3)c2)c2cc(N)ccc2c2ccc(N)cc21`, the T/C is 133 % of control (dose: 0.1 mg/kg/injection, schedule: Q01DX009 (ip), vehicle: water) and 140 % of control (dose: 0.2 mg/kg/injection, schedule: Q01DX009 (ip), vehicle: water). For the same compound, the survivor count (dose: 0.4 mg/kg/injection, schedule: Q01DX009 (ip), vehicle: water) was 6 of 6; the survivor count (dose: 0.8 mg/kg/injection, schedule: Q01DX009 (ip), vehicle: water) was 6 of 6; the survivor count (dose: 1.56 mg/kg/injection, schedule: Q01DX009 (ip), vehicle: water) is listed as 5 of 6; the survivor count (dose: 3.13 mg/kg/injection, schedule: Q01DX009 (ip), vehicle: water) was 0 of 6; the survivor count (dose: 6.25 mg/kg/injection, schedule: Q01DX009 (ip), vehicle: water) is on record as 0 of 6; the survivor count (dose: 12.5 mg/kg/injection, schedule: Q01DX009 (ip), vehicle: water) is listed as 0 of 6. The survivor count (dose: 25.0 mg/kg/injection, schedule: Q01DX009 (ip), vehicle: water) is reported as 0 of 6 and the survivor count (dose: 400.0 micrograms/kg/injection, schedule: Q01DX009 (ip), vehicle: water) was 6 of 6.

Turning to `O=S(=O)(Cl)CCCCS(=O)(=O)Cl`, the survivor count reads like this: under setting [6], 5 of 6; under setting [7], 0 of 6.

In the case of `N#CC1CCC(c2ccccc2)(c2ccccc2)C1=O` (stereo not given), under setting [8], the survivor count was 3 of 6.

In the case of `COc1ccc2c(c1)C(=O)C1(CC2)OC1c1ccncc1` (stereo not given), the survivor count under setting [9] was 6 of 6.

Turning to `N=c1c(C(=O)OCc2ccccc2)ncc(CCl)n1O`, the T/C reads like this: under setting [2], 139 % of control; under setting [3], 139 % of control [5 of 6 alive]; under setting [4], 136 % of control.

For `Cc1cc(C)nc(NC(N)=NCCc2ccccc2)n1`, the survivor count (dose: 100.0 mg/kg/injection, schedule: Q04DX003 (ip), vehicle: saline with Tween-80) is 6 of 6; the survivor count under setting [1] was 6 of 6; the survivor count (dose: 400.0 mg/kg/injection, schedule: Q04DX003 (ip), vehicle: saline with Tween-80) is given as 3 of 6.

For the compound `O=c1cc(-c2ccccc2)nc(Sc2ccc([N+](=O)[O-])cc2[N+](=O)[O-])[nH]1`, the survivor count was 6 of 6 under setting [9] and 6 of 6 under setting [6].
